Assay: Colorimetry of images (Gretag MacBeth SMP-50 densitometer)
Format: physicochemical
Details: Table VII; Epson 870 paper

Cc1nn(-c2ccc(S(=O)(=O)[O-])cc2)c2c1N=Nc1ccc(S(=O)(=O)[O-])cc1C(=O)[O][Co][O]2.O.[Na+].[Na+] [VI]
L*: 88 | a*: −8 | b*: 81

From US7018457B2, “Azo metal-complexed dyes, ink jet ink compositions and ink jet printing methods” (Polaroid Corporation, priority 2002, dated 2006)
